Source: PMC12669712
Results are given in words; binding and its absence hold for the method and conditions named. Binding seen in cells or lysates may run through a third protein. Some results given as binding are weak or reduced against the parent protein; the word gives no strength. For some of these results: Tags and fused reporters may be left off the sequences shown. Blank lines part the entries; values can stand above or below the molecule they belong to.

Chains of the proteins cited; added tags and fusions are not shown.
UniProt P46937: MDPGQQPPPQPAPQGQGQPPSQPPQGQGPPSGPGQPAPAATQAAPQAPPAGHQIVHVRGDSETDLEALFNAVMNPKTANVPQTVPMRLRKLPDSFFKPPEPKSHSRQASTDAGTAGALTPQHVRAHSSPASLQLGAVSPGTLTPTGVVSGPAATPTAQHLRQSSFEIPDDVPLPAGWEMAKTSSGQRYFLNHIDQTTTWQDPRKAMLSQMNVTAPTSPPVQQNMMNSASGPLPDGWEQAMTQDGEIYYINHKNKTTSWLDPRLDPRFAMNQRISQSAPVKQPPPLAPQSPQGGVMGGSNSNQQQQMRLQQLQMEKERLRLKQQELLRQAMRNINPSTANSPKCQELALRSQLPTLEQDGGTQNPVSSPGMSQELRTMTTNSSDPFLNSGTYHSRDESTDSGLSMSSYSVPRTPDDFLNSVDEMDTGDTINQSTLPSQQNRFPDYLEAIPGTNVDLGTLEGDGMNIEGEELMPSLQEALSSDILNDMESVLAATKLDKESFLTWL
UniProt P46938: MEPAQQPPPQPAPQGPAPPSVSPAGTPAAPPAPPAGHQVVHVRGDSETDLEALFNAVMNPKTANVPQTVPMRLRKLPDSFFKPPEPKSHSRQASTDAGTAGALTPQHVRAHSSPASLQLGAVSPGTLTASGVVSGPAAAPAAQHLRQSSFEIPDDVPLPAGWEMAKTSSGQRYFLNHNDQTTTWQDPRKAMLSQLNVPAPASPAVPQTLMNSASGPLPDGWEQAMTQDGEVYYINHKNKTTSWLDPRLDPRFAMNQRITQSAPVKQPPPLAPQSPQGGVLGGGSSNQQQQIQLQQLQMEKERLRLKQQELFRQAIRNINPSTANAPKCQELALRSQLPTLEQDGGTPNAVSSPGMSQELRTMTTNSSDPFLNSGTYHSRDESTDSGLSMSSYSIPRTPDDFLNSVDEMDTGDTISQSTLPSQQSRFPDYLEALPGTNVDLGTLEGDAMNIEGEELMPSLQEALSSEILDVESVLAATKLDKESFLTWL

What was measured:
[1] = molecular target: T1, MST1, endogenous in MEFs (mouse (endogenous in MEFs)) (UniProt Q9JI11); test: co-IP; KSR1+/+ MEF lysates in Buffer A; protein A-Sepharose with anti-MST1, anti-LATS1 or anti-YAP antibodies, 3 h at 4 °C; rabbit IgG as control; in Fig. 8 cells serum-starved for 16 h, then EGF or vehicle for 5 min
T1 sequence: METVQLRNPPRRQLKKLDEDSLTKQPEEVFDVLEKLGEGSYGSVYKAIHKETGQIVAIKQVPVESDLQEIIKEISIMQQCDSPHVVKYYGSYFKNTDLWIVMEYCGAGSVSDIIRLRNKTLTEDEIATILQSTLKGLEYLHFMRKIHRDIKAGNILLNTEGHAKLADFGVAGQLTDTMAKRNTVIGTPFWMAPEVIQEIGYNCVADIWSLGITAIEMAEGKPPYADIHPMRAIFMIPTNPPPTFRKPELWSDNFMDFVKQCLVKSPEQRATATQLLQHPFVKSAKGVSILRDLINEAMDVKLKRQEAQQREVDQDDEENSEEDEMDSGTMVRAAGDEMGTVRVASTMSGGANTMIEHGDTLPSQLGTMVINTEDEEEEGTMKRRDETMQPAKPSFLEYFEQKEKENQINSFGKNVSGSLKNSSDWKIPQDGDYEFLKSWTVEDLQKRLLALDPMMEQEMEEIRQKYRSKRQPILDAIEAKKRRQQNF

[2] = molecular target: T2, Glutathione S-transferase (GST)-tagged MST1 (UniProt Q13043); test: pull-down; TNT-made KSR1 incubated with glutathione-Sepharose beads coated with the GST protein for 3 h at 4 °C in Buffer A (150 mM NaCl, 50 mM Tris-HCl, pH 7.4, 1% Triton X-100); five washes; Western blot with anti-KSR1 and anti-GST; only the target purified
T2 sequence: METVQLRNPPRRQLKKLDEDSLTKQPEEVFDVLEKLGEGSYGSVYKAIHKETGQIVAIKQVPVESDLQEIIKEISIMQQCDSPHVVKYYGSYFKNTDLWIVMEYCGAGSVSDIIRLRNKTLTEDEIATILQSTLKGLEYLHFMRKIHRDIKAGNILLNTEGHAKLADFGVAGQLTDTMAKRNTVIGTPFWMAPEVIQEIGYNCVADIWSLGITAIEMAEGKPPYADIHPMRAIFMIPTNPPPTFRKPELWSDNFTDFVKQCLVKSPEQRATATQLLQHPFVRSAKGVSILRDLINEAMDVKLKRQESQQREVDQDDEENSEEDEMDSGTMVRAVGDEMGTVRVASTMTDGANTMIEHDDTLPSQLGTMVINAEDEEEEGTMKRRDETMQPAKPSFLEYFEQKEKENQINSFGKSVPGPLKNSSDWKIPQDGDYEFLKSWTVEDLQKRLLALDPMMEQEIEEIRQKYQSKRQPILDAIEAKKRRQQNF

[3] = molecular target: T3, MST1, endogenous in MCF-7 cells (human (endogenous in MCF-7)) (UniProt Q13043); test: co-IP; MCF-7 lysates, endogenous proteins; immunoprecipitation of MST1; non-specific IgG as control
T3 sequence: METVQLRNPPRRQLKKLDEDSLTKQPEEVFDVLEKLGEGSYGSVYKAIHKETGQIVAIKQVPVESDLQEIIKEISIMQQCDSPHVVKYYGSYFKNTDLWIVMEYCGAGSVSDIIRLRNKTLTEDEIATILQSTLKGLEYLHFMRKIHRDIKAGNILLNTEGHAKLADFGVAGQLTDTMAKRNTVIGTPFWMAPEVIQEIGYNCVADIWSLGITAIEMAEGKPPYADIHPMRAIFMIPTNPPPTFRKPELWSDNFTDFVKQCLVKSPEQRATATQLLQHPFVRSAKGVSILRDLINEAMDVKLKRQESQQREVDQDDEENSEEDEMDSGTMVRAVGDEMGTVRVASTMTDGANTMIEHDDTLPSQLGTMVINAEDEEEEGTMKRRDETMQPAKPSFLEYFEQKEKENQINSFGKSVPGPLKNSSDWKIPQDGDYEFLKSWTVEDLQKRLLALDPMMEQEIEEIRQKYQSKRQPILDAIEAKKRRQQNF

[4] = molecular target: YAP, endogenous in HEK293T cells (human (endogenous in HEK293T)) (UniProt P46937); test: co-IP; HEK293T cells transfected with GFP-tagged KSR1 or GFP alone for 72 h; lysates immunoprecipitated with anti-YAP antibodies or rabbit IgG

B2: KSR1, endogenous in MCF-7 cells (protein, UniProt Q8IVT5 1-923)
chain: MDRAALRAAAMGEKKEGGGGGDAAAAEGGAGAAASRALQQCGQLQKLIDISIGSLRGLRTKCAVSNDLTQQEIRTLEAKLVRYICKQRQCKLSVAPGERTPELNSYPRFSDWLYTFNVRPEVVQEIPRDLTLDALLEMNEAKVKETLRRCGASGDECGRLQYALTCLRKVTGLGGEHKEDSSWSSLDARRESGSGPSTDTLSAASLPWPPGSSQLGRAGNSAQGPRSISVSALPASDSPTPSFSEGLSDTCIPLHASGRLTPRALHSFITPPTTPQLRRHTKLKPPRTPPPPSRKVFQLLPSFPTLTRSKSHESQLGNRIDDVSSMRFDLSHGSPQMVRRDIGLSVTHRFSTKSWLSQVCHVCQKSMIFGVKCKHCRLKCHNKCTKEAPACRISFLPLTRLRRTESVPSDINNPVDRAAEPHFGTLPKALTKKEHPPAMNHLDSSSNPSSTTSSTPSSPAPFPTSSNPSSATTPPNPSPGQRDSRFNFPAAYFIHHRQQFIFPVPSAGHCWKCLLIAESLKENAFNISAFAHAAPLPEAADGTRLDDQPKADVLEAHEAEAEEPEAGKSEAEDDEDEVDDLPSSRRPWRGPISRKASQTSVYLQEWDIPFEQVELGEPIGQGRWGRVHRGRWHGEVAIRLLEMDGHNQDHLKLFKKEVMNYRQTRHENVVLFMGACMNPPHLAIITSFCKGRTLHSFVRDPKTSLDINKTRQIAQEIIKGMGYLHAKGIVHKDLKSKNVFYDNGKVVITDFGLFGISGVVREGRRENQLKLSHDWLCYLAPEIVREMTPGKDEDQLPFSKAADVYAFGTVWYELQARDWPLKNQAAEASIWQIGSGEGMKRVLTSVSLGKEVSEILSACWAFDLQERPSFSLLMDMLEKLPKLNRRLSHPGHFWKSADINSSKVVPRFERFGLGVLESSNPKM
binding [3]: binds

B3: GFP-tagged full-length KSR1 (protein, UniProt Q8IVT5 1-923)
chain: MDRAALRAAAMGEKKEGGGGGDAAAAEGGAGAAASRALQQCGQLQKLIDISIGSLRGLRTKCAVSNDLTQQEIRTLEAKLVRYICKQRQCKLSVAPGERTPELNSYPRFSDWLYTFNVRPEVVQEIPRDLTLDALLEMNEAKVKETLRRCGASGDECGRLQYALTCLRKVTGLGGEHKEDSSWSSLDARRESGSGPSTDTLSAASLPWPPGSSQLGRAGNSAQGPRSISVSALPASDSPTPSFSEGLSDTCIPLHASGRLTPRALHSFITPPTTPQLRRHTKLKPPRTPPPPSRKVFQLLPSFPTLTRSKSHESQLGNRIDDVSSMRFDLSHGSPQMVRRDIGLSVTHRFSTKSWLSQVCHVCQKSMIFGVKCKHCRLKCHNKCTKEAPACRISFLPLTRLRRTESVPSDINNPVDRAAEPHFGTLPKALTKKEHPPAMNHLDSSSNPSSTTSSTPSSPAPFPTSSNPSSATTPPNPSPGQRDSRFNFPAAYFIHHRQQFIFPVPSAGHCWKCLLIAESLKENAFNISAFAHAAPLPEAADGTRLDDQPKADVLEAHEAEAEEPEAGKSEAEDDEDEVDDLPSSRRPWRGPISRKASQTSVYLQEWDIPFEQVELGEPIGQGRWGRVHRGRWHGEVAIRLLEMDGHNQDHLKLFKKEVMNYRQTRHENVVLFMGACMNPPHLAIITSFCKGRTLHSFVRDPKTSLDINKTRQIAQEIIKGMGYLHAKGIVHKDLKSKNVFYDNGKVVITDFGLFGISGVVREGRRENQLKLSHDWLCYLAPEIVREMTPGKDEDQLPFSKAADVYAFGTVWYELQARDWPLKNQAAEASIWQIGSGEGMKRVLTSVSLGKEVSEILSACWAFDLQERPSFSLLMDMLEKLPKLNRRLSHPGHFWKSADINSSKVVPRFERFGLGVLESSNPKM
binding [4]: binds

The next lines start with the values.

binding [1]: binds
Molecule: YAP, endogenous in MEFs (from UniProt P46938 1-488)

binding [2]: binds
B1: Kinase Suppressor of Ras 1 (KSR1), produced by in vitro transcription and translation (TNT) (protein, UniProt Q8IVT5 1-923)
chain: MDRAALRAAAMGEKKEGGGGGDAAAAEGGAGAAASRALQQCGQLQKLIDISIGSLRGLRTKCAVSNDLTQQEIRTLEAKLVRYICKQRQCKLSVAPGERTPELNSYPRFSDWLYTFNVRPEVVQEIPRDLTLDALLEMNEAKVKETLRRCGASGDECGRLQYALTCLRKVTGLGGEHKEDSSWSSLDARRESGSGPSTDTLSAASLPWPPGSSQLGRAGNSAQGPRSISVSALPASDSPTPSFSEGLSDTCIPLHASGRLTPRALHSFITPPTTPQLRRHTKLKPPRTPPPPSRKVFQLLPSFPTLTRSKSHESQLGNRIDDVSSMRFDLSHGSPQMVRRDIGLSVTHRFSTKSWLSQVCHVCQKSMIFGVKCKHCRLKCHNKCTKEAPACRISFLPLTRLRRTESVPSDINNPVDRAAEPHFGTLPKALTKKEHPPAMNHLDSSSNPSSTTSSTPSSPAPFPTSSNPSSATTPPNPSPGQRDSRFNFPAAYFIHHRQQFIFPVPSAGHCWKCLLIAESLKENAFNISAFAHAAPLPEAADGTRLDDQPKADVLEAHEAEAEEPEAGKSEAEDDEDEVDDLPSSRRPWRGPISRKASQTSVYLQEWDIPFEQVELGEPIGQGRWGRVHRGRWHGEVAIRLLEMDGHNQDHLKLFKKEVMNYRQTRHENVVLFMGACMNPPHLAIITSFCKGRTLHSFVRDPKTSLDINKTRQIAQEIIKGMGYLHAKGIVHKDLKSKNVFYDNGKVVITDFGLFGISGVVREGRRENQLKLSHDWLCYLAPEIVREMTPGKDEDQLPFSKAADVYAFGTVWYELQARDWPLKNQAAEASIWQIGSGEGMKRVLTSVSLGKEVSEILSACWAFDLQERPSFSLLMDMLEKLPKLNRRLSHPGHFWKSADINSSKVVPRFERFGLGVLESSNPKM
